In PubChem BioAssay AID1035470 (Broad Institute, 2014):
In all, about 1,800 compounds went through this assay and fewer than 10 were called active. Another 16% or so got no clear call; they are omitted.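 Rule for the calls: active = compound lowering the normal-ribosome reporter at least twice as much as the humanized-ribosome reporter, growth loss under a set limit; inconclusive = no clear call, values can overlap the other calls; inactive = the rest.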 The list shows a part of the results, in another mix than the full data. Measured potencies and affinities stand elsewhere.

assay: growth inhibition of wild-type GFP E. coli versus G2058-humanized strain, dose response, G2058 mutant RFP vs wild-type GFP, cherry-pick, two tests (AID 1035470); conditions: E. coli WT-GFP vs G2058-humanized RFP, fluorescence, 24 h; at 50 µM (top of the series)

Compound	activity change, negative = inhibition
COc1ccc(NC(=O)CSc2n[nH]c(-c3ccncc3)n2)c([N+](=O)[O-])c1	inactive: -4.21
CC(C)CNc1nc(S(=O)(=O)c2ccccc2)c(Cl)s1	inactive: -11.6
CS(=O)(=O)Nc1ccccc1C(=O)NCCSc1ccccc1	inactive: -4.79
CC(C)OC(=O)c1sc2nc(-c3ccccc3)ccc2c1N	inactive: 10.6
COc1ccc(-c2nn(-c3ccccc3C)cc2CNCc2cccnc2)cc1F	inactive: -12.3
CCOC(=O)c1cc2nc(-c3ccccc3)cc(C)n2n1	inactive: -8.04
Cc1ccc(S(=O)(=O)NC(C)C(=O)NCc2ccc(Cl)cc2)cc1 (stereo unspecified)	inactive: 3.94
CCc1ccc2nc(SCC(=O)Nc3ccccc3N3CCOCC3)c(C#N)cc2c1	inactive: 24.8
NS(=O)(=O)c1ccc(NC(=O)c2cc(Cl)sc2Cl)cc1	inactive: -17.2
Cc1cc(C)cc(NC(=O)COC(=O)CC2CCCC2)c1	inactive: 4.58
Cc1ccc(-c2c(=O)n(O)c3ccccc3[n+]2[O-])cc1	inactive: -1.24
CN1N=C2c3ccccc3CCC2C1c1ccc(F)cc1 (stereo unspecified)	inactive: -9.95
O=[N+]([O-])c1cccc(COc2ccc(CN3CCOCC3)cc2)c1	inactive: -1.83
Cn1cc(CCC(=O)NCc2ccc3c(c2)OCO3)c2ccccc21	inactive: -3.65
O=C(Nc1c(S(=O)(=O)c2ccc(Cl)cc2)csc1Br)c1ccccc1Cl	inactive: 8.08
c1coc(CSc2ncnc3c2oc2ccccc23)c1	inactive: -1.81
COc1ccc(CN(C)C[C@H]2Oc3ccc(NS(=O)(=O)c4ccc(Cl)cc4)cc3CC(=O)N([C@@H](C)CO)C[C@H]2C)cc1	inactive: -10.5
CCOC(=O)C(C)(C)n1nnc(-c2ccc([N+](=O)[O-])cc2)n1	inactive: -8.99

Exported as labelled records: 2 of the compounds above
CCc1ccc2nc(SCC(=O)Nc3ccccc3N3CCOCC3)c(C#N)cc2c1
  activity change, negative = inhibition: inactive: 24.8
c1coc(CSc2ncnc3c2oc2ccccc23)c1
  activity change, negative = inhibition: inactive: -1.81

(continued)

Compound	activity change, negative = inhibition
CC(=O)Oc1ccc(N(c2ccccc2)S(=O)(=O)c2ccc(C)cc2)cc1	inactive: -15.6
CN(C(=O)COC(=O)CSc1ccc(C(N)=O)cc1[N+](=O)[O-])C1CCCCC1	inactive: 4.54
CCN(CC(=O)Nc1cccc(C#N)c1)CC(=O)Nc1cccc(OC)c1	inactive: -14.5
Cc1cccc(-c2ccc([C@@H]3[C@@H](CO)N4CCCCN(S(=O)(=O)c5ccccc5C)C[C@@H]34)cc2)c1	inactive: -12.8
COC(=O)c1cc2c(c3c4cc(F)ccc4n(S(=O)(=O)c4cccc(C)c4)c13)C(=O)N(Cc1ccco1)C2	inactive: 6.4
CCOc1ccc2[nH]c3c(NCCN(C)C)ncnc3c2c1	inactive: 10.3
S=c1[nH]nc(-c2ccc3ccccc3n2)n1-c1ccc2c(c1)OCCO2	inactive: -7.71
COC(=O)c1cn(C(=O)c2ccc(OC)cc2)c2ccccc12	inactive: -12.5
O=C(COc1ccc(Br)cc1)Nc1ccc(C(=O)Nc2ccccc2C(=O)O)cc1	inactive: -6.7
CNC(=O)c1ccsc1NC(=O)c1ccc(S(=O)(=O)N2CCc3ccccc32)cc1	inactive: -12
COC(=O)c1ccc2nc(-c3ccc(F)cc3)c(Cc3cccc(F)c3)n2c1	inactive: -0.548
Cc1ccc2oc(=O)n(CCCOc3ccccc3C)c2c1	inactive: -19.2
CCCCOc1ccc(-c2nnn(CCC(=O)N3CCOCC3)n2)cc1	inactive: -14.6
O=C(Nc1cccc(Cl)c1)N1C[C@@H]2[C@H](c3ccccc31)[C@@H](CO)N2C(=O)c1cccnc1	inactive: -1.82
CCc1ccc(NC(=O)CCc2c(C)nn(-c3ccc(N4CCCCC4)nn3)c2C)cc1	inactive: -14.7
CN(Cc1c(F)cccc1Cl)C(=O)c1ccc(NS(=O)(=O)c2ccc3[nH]c(=O)[nH]c3c2)cc1	inactive: -11.4
Cc1cc(SCC(=O)c2cccs2)n2nc(C)c(-c3ccc(Cl)cc3)c2n1	inactive: -11.5
Cc1ccccc1SCC(=O)OCC(=O)Nc1sccc1C(N)=O	inactive: -19.8
